{
  "source": "paper doi:10.1101/2023.10.05.561144",
  "binders": {"B1": {"name": "AQP1, endogenous in rat PASMCs (protein, UniProt P29975 1-269)", "chain": "MASEIKKKLFWRAVVAEFLAMTLFVFISIGSALGFNYPLERNQTLVQDNVKVSLAFGLSIATLAQSVGHISGAHLNPAVTLGLLLSCQISILRAVMYIIAQCVGAIVASAILSGITSSLLENSLGRNDLARGVNSGQGLGIEIIGTLQLVLCVLATTDRRRRDLGGSAPLAIGLSVALGHLLAIDYTGCGINPARSFGSAVLTRNFSNHWIFWVGPFIGSALAVLIYDFILAPRSSDFTDRMKVWTSGQVEEYDLDADDINSRVEMKPK"}},
  "target": "T1, biotin ligase-conjugated casp3 (AdBioCasp3), adenoviral construct (UniProt P42574)",
  "T1 sequence": "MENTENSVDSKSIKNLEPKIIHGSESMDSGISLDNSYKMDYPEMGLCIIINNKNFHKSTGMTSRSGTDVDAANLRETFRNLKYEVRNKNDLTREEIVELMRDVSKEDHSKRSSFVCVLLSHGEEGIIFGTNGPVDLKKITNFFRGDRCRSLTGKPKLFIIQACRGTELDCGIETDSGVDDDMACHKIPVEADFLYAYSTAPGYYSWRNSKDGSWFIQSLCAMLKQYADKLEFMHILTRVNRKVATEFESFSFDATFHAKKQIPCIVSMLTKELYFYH",
  "assay": "proximity labelling",
  "note": "Results are given in words; binding and its absence hold for the method and conditions named. In cells and extracts the contact can be indirect. A yes stands for co-enrichment or nearness to the bait. Other partners may have been found.",
  "data": [
    {"binder": "B1", "values": [
      {"measurement": "binding", "result": "binds"}
    ]}
  ]
}
